Measured values reported in article PMC6508795.

Chains of the proteins cited; added tags and fusions are not shown. Residues count along the entry.
UniProt P56753: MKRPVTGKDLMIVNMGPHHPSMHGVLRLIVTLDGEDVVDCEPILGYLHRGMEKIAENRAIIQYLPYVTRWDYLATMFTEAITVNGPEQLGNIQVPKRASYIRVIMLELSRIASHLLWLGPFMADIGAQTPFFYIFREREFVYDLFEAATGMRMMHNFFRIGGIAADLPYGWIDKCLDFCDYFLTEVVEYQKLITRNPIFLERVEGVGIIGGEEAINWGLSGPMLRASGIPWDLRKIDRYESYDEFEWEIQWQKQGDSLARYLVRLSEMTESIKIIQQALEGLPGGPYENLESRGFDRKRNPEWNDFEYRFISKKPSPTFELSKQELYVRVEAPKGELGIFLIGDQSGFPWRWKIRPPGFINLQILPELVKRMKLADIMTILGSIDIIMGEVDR
UniProt Q9S9N6, residues 45-461: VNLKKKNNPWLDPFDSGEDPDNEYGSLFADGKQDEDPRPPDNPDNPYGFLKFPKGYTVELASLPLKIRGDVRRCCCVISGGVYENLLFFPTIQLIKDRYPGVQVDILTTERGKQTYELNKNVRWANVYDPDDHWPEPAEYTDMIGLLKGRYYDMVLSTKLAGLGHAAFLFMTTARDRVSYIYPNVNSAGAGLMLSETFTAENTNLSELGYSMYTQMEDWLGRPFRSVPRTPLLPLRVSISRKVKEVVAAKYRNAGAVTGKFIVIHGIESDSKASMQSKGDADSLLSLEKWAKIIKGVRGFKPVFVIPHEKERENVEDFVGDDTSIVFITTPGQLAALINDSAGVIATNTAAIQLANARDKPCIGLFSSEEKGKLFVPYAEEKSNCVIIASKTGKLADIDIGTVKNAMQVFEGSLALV

T1: NADPH-thioredoxin reductase (NTRC) (Arabidopsis thaliana (endogenous in leaves)) (UniProt O22229)
T1 sequence: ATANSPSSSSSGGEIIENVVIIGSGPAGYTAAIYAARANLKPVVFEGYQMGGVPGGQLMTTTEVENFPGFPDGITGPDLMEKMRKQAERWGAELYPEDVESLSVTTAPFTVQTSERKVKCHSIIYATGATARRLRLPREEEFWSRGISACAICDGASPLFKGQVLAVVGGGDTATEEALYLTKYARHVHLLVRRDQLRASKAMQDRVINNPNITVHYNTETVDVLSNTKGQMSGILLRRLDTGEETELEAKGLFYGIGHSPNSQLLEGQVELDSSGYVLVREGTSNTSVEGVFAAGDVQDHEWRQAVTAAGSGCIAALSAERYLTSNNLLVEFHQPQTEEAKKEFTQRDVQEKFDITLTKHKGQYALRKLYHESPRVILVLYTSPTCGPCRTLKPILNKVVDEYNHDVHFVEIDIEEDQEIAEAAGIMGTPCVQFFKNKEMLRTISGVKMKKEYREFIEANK


Target: T1, NADPH-thioredoxin reductase (NTRC) (Arabidopsis thaliana (endogenous in leaves))
Test: affinity purification with mass spectrometry; Co-IP from WT, ntrc and OE-NTRC total leaf extracts (Pierce IP Lysis buffer, 1% NP-40) on a resin with affinity-purified NTRC-specific antibody (Pierce Co-IP kit); eluates analysed by MS; hits: at least two unique peptides in WT/OE-NTRC eluates and absent from ntrc eluates

| binding | Molecule |
| --- | --- |
| binds | NdhH (from UniProt P56753 1-393) |
| binds | Ndh48 (NDF1) (from UniProt Q9S9N6 45-461) |
| binds | PROTON GRADIENT REGULATION 5 (PGR5) (protein, UniProt Q9SL05 61-133) KNVNEGKGLFAPLVVVTRNLVGKKRFNQLRGKAIALHSQVITEFCKSIGADAKQRQGLIRLAKKNGERLGFLA |
| binds | NdhS (CRR31) (protein, UniProt Q9T0A4 49-250) AMGKFNLWEVMGGRGLCNGEKGIEKELQRNIEDEQETSKAENNETERESDDSNLSFKVPEDGFEKEMMGLTGGFPGGEKGLKTFIEKNPPPPPPPPPAKQGSDASAVATDKKPKAPKLPLLMPGMIAIVKNQNSPYHMYCGIVQRITDGKAGVLFEGGNWDRLITFRLEELERREKGPPGKNPKSCILEPLIEQMQKEEAAP |

Results are given in words; binding and its absence hold for the method and conditions named. Binding seen in cells or lysates may run through a third protein. Here binding means that the protein was enriched with, or labelled near, the bait; the list need not be complete.
